In paper PMC10657439 (Cell Death and Differentiation, 2023):
No constants are given. Whether binding was seen depends on the method and setting.

Chains of the proteins cited; added tags and fusions are not shown. Lines headed by an entry give the natural chain unless they say otherwise; changes in a name come on top. Residues count along the entry.
UniProt P25445, residues 26-173: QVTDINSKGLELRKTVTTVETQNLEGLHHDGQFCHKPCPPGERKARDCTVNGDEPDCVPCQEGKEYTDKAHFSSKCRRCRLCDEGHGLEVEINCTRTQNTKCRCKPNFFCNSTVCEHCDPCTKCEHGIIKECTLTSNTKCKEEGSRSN
UniProt P48023: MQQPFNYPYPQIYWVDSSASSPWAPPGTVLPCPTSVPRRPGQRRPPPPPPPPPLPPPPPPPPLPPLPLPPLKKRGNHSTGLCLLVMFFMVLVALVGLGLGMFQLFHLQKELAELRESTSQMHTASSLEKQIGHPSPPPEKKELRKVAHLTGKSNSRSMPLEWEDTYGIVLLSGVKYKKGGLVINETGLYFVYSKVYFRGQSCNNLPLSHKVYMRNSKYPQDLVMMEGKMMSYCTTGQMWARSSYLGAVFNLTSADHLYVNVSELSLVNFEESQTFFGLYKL

Molecular target: Fc-tagged Fas (recombinant extracellular domain of Fas with a C-terminal Fc) (human) (UniProt P25445)
Assay: ELISA; Fc-tagged Fas (2 μg/ml) coated on 96-well plates; His-tagged FasL (single or tandem) in 2-fold dilutions from 50 to 0.048 nM, 1 h at 37 °C; both purified

| binding | Substance |
| --- | --- |
| no binding | FasL^ED163-164AA (from UniProt P48023) (ligand) |
| no binding | FasL^EE270-271AA (from UniProt P48023) (ligand) |
